Reference: the supplement of paper PMC10849652
Some of the results follow.

Chains of the proteins cited; added tags and fusions are not shown. Lines headed by an entry give the natural chain unless they say otherwise; changes in a name come on top.
UniProt P25705: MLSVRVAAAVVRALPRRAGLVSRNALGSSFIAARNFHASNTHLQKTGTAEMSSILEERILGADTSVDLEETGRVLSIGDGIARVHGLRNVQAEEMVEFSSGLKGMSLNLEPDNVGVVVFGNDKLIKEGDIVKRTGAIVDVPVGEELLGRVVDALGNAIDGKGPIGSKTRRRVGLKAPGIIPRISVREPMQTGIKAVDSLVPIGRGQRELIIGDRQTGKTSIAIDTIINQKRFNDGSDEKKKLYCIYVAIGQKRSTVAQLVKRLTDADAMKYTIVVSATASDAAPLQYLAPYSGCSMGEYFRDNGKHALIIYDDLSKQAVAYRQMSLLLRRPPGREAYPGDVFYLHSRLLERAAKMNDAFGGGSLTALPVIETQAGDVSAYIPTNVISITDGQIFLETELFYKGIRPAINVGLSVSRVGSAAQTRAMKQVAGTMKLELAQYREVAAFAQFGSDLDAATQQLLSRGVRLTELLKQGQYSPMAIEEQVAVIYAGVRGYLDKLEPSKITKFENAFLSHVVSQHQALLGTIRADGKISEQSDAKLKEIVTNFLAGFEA
UniProt Q9H1I8: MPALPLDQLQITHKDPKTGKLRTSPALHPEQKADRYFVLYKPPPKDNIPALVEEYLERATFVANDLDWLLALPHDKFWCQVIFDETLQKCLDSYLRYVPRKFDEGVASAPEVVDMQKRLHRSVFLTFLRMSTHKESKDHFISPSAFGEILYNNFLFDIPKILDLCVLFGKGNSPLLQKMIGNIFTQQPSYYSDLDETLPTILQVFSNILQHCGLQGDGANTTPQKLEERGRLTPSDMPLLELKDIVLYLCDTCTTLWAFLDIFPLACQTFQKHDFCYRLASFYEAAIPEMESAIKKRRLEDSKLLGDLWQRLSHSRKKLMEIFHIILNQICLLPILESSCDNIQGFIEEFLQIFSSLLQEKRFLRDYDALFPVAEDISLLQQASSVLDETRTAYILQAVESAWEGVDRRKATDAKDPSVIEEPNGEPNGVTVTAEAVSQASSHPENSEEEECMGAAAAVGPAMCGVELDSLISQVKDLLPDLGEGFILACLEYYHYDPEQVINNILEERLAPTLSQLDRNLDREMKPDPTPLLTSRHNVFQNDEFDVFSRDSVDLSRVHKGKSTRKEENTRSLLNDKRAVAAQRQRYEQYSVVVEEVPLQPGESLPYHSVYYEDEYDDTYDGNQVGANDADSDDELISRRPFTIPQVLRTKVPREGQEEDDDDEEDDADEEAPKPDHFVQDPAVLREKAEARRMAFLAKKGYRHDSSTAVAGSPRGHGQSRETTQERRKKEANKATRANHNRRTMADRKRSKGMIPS
UniProt Q96GX2: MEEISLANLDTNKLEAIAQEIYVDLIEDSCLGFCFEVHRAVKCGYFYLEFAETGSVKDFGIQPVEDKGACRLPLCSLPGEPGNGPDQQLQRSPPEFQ
UniProt P04424, whole entry, looked up: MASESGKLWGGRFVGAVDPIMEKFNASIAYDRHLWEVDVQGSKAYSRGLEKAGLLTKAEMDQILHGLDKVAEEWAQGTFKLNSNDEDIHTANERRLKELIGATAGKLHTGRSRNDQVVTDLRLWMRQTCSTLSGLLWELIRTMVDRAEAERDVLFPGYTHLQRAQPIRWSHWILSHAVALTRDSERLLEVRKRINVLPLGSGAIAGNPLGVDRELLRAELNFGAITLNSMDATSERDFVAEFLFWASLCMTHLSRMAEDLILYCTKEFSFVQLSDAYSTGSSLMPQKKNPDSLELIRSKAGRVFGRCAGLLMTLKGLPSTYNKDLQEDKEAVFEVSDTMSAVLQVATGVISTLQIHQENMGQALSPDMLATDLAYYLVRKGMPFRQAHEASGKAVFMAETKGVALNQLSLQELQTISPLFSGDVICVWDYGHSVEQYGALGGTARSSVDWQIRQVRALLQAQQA
UniProt Q9H0Y0: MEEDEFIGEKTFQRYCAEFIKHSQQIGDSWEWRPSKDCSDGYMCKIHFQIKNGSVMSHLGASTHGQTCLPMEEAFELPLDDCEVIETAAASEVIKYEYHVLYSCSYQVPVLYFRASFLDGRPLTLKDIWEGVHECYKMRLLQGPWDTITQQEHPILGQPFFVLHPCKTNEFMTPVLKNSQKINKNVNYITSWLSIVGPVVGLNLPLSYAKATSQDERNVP
UniProt O95260: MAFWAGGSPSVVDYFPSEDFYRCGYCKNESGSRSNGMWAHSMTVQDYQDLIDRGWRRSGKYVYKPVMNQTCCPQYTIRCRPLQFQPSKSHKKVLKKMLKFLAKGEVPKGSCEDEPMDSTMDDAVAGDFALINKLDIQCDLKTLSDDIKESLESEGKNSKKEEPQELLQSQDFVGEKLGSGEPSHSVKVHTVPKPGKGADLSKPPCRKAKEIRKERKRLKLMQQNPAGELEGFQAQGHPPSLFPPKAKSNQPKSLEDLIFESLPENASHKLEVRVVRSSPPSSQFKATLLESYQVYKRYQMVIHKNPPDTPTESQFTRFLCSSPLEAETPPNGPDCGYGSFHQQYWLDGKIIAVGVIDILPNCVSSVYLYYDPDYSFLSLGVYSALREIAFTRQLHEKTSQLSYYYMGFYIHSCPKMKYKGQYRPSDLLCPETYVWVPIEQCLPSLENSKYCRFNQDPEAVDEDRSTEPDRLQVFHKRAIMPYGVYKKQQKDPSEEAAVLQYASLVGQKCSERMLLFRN
UniProt O43681: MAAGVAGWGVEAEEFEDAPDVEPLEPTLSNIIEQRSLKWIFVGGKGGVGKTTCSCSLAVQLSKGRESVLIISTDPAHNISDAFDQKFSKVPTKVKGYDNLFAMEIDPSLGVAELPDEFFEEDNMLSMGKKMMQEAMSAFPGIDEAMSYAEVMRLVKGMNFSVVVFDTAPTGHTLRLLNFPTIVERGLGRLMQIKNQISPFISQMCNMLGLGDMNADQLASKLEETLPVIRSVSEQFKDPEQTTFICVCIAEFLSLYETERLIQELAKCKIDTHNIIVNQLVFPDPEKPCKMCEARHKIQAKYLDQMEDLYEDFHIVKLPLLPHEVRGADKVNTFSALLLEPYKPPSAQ
UniProt Q9H7T9: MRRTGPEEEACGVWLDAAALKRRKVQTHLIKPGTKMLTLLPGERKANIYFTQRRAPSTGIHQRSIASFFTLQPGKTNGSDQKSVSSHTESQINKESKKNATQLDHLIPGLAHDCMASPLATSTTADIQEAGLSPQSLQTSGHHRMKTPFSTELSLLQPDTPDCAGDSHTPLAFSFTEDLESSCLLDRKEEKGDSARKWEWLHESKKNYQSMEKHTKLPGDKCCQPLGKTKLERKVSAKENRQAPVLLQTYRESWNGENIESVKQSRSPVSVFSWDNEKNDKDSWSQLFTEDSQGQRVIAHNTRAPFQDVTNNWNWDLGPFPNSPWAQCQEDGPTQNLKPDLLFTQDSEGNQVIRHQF
UniProt P27449, whole entry, looked up: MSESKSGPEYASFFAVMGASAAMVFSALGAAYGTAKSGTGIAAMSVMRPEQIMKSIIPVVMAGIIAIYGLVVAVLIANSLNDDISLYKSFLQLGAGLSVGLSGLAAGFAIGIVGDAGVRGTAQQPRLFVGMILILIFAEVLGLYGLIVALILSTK
UniProt P0C7T5: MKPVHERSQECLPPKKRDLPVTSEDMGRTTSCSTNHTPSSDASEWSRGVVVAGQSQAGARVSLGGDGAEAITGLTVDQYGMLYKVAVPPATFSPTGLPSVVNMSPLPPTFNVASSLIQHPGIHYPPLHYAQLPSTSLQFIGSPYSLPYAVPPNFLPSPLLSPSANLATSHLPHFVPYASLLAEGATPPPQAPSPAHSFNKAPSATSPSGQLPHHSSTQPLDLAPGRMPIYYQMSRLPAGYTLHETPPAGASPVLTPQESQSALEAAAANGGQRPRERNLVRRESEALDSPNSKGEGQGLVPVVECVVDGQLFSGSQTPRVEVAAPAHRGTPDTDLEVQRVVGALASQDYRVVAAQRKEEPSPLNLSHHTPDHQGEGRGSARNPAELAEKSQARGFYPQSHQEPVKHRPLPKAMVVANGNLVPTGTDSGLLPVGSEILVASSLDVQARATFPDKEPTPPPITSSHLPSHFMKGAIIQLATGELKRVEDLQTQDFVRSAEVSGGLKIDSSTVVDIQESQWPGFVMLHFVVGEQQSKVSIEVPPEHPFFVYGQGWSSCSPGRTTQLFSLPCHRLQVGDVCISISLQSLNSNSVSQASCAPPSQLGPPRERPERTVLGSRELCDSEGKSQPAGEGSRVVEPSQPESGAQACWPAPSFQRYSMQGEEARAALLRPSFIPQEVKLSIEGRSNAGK
UniProt Q13825: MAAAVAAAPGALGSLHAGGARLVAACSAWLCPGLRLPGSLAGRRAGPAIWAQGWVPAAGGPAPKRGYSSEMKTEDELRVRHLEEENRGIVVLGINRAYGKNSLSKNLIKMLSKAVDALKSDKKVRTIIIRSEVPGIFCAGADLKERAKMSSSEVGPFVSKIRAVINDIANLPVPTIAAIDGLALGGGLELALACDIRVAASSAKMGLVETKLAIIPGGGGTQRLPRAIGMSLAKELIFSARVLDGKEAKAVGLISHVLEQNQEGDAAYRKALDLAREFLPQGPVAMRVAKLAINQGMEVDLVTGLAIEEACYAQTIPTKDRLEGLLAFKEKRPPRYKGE
UniProt Q00973: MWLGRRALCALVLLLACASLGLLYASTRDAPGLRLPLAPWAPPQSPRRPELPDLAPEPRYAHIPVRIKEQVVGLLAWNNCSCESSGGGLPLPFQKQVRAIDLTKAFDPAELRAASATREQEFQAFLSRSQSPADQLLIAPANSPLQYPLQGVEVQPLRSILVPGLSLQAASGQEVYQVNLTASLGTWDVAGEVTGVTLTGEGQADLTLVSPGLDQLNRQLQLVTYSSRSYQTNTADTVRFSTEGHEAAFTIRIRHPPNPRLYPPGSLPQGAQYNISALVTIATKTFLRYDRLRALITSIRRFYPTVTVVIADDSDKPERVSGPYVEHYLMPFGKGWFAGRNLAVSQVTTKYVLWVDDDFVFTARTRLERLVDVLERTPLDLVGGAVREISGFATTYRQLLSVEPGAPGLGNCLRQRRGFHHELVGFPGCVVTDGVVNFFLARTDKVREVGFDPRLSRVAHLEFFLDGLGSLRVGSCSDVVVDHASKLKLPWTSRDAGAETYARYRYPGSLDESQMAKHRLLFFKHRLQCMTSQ
UniProt Q9NQS1: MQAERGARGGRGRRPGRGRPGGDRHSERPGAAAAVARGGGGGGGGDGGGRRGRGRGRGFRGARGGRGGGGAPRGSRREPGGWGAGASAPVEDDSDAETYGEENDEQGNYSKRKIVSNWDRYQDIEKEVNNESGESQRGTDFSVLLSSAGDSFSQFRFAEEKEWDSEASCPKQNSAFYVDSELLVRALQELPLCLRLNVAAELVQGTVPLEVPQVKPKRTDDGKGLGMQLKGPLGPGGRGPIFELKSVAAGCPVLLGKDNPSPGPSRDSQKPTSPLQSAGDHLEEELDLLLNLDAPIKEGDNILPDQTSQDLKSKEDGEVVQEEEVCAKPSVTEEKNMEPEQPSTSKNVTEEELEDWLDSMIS
UniProt H3BUF6: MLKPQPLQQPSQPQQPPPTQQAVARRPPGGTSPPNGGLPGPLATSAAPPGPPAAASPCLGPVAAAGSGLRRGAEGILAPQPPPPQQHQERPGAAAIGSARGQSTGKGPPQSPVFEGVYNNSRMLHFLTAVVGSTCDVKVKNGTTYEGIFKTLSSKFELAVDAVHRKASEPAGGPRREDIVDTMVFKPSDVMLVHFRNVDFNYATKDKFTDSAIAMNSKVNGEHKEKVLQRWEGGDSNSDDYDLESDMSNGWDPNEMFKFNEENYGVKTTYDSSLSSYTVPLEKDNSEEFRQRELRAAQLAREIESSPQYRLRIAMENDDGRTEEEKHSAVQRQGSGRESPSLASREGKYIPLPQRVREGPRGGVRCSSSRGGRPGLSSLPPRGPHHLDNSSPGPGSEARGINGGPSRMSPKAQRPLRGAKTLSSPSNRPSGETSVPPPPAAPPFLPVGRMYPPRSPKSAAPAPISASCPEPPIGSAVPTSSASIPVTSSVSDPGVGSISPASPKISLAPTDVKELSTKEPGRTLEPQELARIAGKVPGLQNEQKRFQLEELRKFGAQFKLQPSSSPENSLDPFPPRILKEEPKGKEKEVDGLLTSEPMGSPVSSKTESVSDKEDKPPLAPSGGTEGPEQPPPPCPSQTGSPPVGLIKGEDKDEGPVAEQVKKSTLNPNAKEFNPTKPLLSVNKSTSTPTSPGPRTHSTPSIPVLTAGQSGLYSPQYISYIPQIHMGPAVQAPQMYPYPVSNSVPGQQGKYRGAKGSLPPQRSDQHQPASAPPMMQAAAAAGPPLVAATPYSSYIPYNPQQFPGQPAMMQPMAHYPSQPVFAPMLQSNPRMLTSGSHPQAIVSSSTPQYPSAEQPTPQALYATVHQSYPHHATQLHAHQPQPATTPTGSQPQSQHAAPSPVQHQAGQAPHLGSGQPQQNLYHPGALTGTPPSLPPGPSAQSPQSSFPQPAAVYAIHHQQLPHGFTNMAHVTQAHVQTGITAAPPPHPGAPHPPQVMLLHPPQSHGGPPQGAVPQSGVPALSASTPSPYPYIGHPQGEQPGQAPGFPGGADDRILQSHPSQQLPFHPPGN

compound: CCn1c(C(=O)N(C2CC2)C2CC2)cc2c3c(ncn3C)c(Nc3cc(C)n(C)n3)nc21; assay: log2 fold change, soluble protein after heating vs DMSO (PISA); higher = thermal stabilisation; K562 lysate, 10 uM; active = over 0.2 and 3.5 SD of the protein, either way, in both replicates (recomputed)
Procedure, shortened: (§1)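 K562 pellets were dounce-homogenised in PBS pH 7.4 containing 1 mM MgCl2, and the crude extract, at 1 mg/mL protein, was exposed to 10 μM compound for 30 min. Aliquots were heated for 3 min across 48°C-58°C, pooled, brought to 0.5% NP-40 at 4°C and spun at 21,000xg for 90 min, with the supernatant taken as soluble protein. TMTpro 16plex LC-MS/MS with equalised channel sums quantified that protein. Values are log-two fold changes in thermal stability relative to solvent controls, taken from duplicates.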

Target	log2 fold change
ATRN (UniProt O75882)	inactive: 0.063
ATP5F1A (UniProt P25705)	inactive: 0.004
ASCC2 (UniProt Q9H1I8)	inactive: 0.007
ATXN7L3B (UniProt Q96GX2)	inactive: -0.068
ASL (UniProt P04424)	inactive: -0.009
ATG10 (UniProt Q9H0Y0)	inactive: 0.012
ATF7IP2 (UniProt Q5U623)	inactive: -0.064
B3GLCT (UniProt Q6Y288)	inactive: -0.038
ATL2 (UniProt Q8NHH9)	inactive: 0.008
ASPM (UniProt Q8IZT6)	inactive: 0.037
ATE1 isoform 2 (UniProt O95260)	inactive: 0.014
ASNA1 (UniProt O43681)	inactive: 0.034
AUNIP isoform 2 (UniProt Q9H7T9)	inactive: 0.171
ATAD1 (UniProt Q8NBU5)	inactive: -0.041
ATP6V0C (UniProt P27449)	inactive: -0.048
ATXN1L (UniProt P0C7T5)	inactive: -0.078
ATXN2L (UniProt Q8WWM7)	inactive: -0.017
ATXN2 (UniProt F8WB05)	inactive: -0.005
AUH (UniProt Q13825)	inactive: 0
ATRX (UniProt P46100)	inactive: 0.194
AXIN1 (UniProt O15169)	inactive: 0.042
ATRAID isoform 3 (UniProt Q6UW56)	inactive: -0.098
B4GALNT1 (UniProt Q00973)	inactive: -0.087
B3GNT5 (UniProt Q9BYG0)	inactive: -0.045
AVEN (UniProt Q9NQS1)	inactive: -0.025
ATF3 (UniProt P18847)	inactive: 0.004
ATP1B2 (UniProt P14415)	inactive: -0.064

compound: CCn1cc(-c2ccnc3[nH]c(-c4cccc(CN(C)C)c4)cc23)c(-c2ccc(NC(=O)N(C)C)cc2)n1; assay: as above
Procedure, shortened: as §1

Target	log2 fold change
ATRN (UniProt O75882)	inactive: -0.155
ATP5F1A (UniProt P25705)	inactive: 0.036
ASCC2 (UniProt Q9H1I8)	inactive: 0.051
ATXN7L3B (UniProt Q96GX2)	inactive: -0.054
ASL (UniProt P04424)	inactive: 0.009
ATG10 (UniProt Q9H0Y0)	inactive: -0.021
ATF7IP2 (UniProt Q5U623)	inactive: -0.145
B3GLCT (UniProt Q6Y288)	inactive: -0.066
ATL2 (UniProt Q8NHH9)	inactive: -0.228
ASPM (UniProt Q8IZT6)	inactive: 0.049
ATE1 isoform 2 (UniProt O95260)	inactive: 0.032
ASNA1 (UniProt O43681)	inactive: -0.071
AUNIP isoform 2 (UniProt Q9H7T9)	inactive: -0.044
ATAD1 (UniProt Q8NBU5)	inactive: -0.04
AURKB isoform 5 (UniProt Q96GD4)	inactive: 0.67
ATP6V0C (UniProt P27449)	inactive: -0.052
ATXN1L (UniProt P0C7T5)	inactive: -0.001
ATP7B (UniProt P35670)	inactive: 0.026
ATXN2L (UniProt Q8WWM7)	inactive: -0.017
ATXN2 (UniProt F8WB05)	inactive: 0.094
AUH (UniProt Q13825)	inactive: 0.1
ATRX (UniProt P46100)	inactive: 0.001
ATXN2L (UniProt H3BUF6)	inactive: 0
AXIN1 (UniProt O15169)	inactive: -0.107
B4GALNT1 (UniProt Q00973)	inactive: 0.078
B3GNT5 (UniProt Q9BYG0)	inactive: -0.026
AVEN (UniProt Q9NQS1)	active: -0.651
ATF3 (UniProt P18847)	inactive: -0.476
